Primary screen of a compound library

Measurements from “University of Dundee, Small-Polar-MMV Screening Library” (2021), ChEMBL document CHEMBL3988442.

Mtb growth Cornell: 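Whole-cell assay for inhibitors of Mycobacterium tuberculosis growth, labelled Cornell in the record; the read-out is not stated. The concentration is filed as 10 mM, unlikely as a test dose, so the dose is not known. The record gives no direction; compounds strong in two other growth screens of this library score well above the rest, so higher reads as stronger inhibition. Of about 53,000 compounds tested this way, about 900 (1.7%) reached 50% or more in at least one test.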
Mtb heat-shock: 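Assay on Mycobacterium tuberculosis, filed only as a heat shock assay from Cornell; the read-out is not stated. The concentration is filed as 10 mM, unlikely as a test dose, so the dose is not known. Higher reads as stronger inhibition (inferred: compounds with an IC50 in retests scored well above the rest). Of about 69,000 compounds tested this way, about 930 (1.4%) reached 50% or more in at least one test.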

The filed quantity is “Percent Effect” (%).
The controls that fix the scale are not given in the record; negative values are as filed.
The compounds are a random part of those screened.
A dash means the value is not listed here; it may have been measured.

structure,Mtb growth Cornell,Mtb heat-shock
COCC(=O)N1CCCC1c1csc(Nc2cnccn2)n1 (configuration not stated),-,-12.94
Cc1cc(NCC2CCN(c3ccccc3)C2)n2ncnc2n1 (configuration not stated),-,30.35
CCC(C#N)NC(=O)c1sccc1OC (configuration not stated),-3.514,6.351
CSCC(=O)N1CCCCC1Cn1cc(C)cn1 (configuration not stated),-21.78,-0.7823
Cc1ncsc1CCC(=O)N(C)Cc1nc2ccccc2n1C,7.157,-5.453
COCCOc1ccc(NC(=O)N2CCCC2c2ccsc2)cn1 (configuration not stated),-51.93,12.69
CC(=O)Nc1nc(C(=O)NCc2ccc(N3CCCCCC3)nc2)cs1,-,8.395
CCCNc1ncc(C2CC(=O)NCc3nc4ccccn4c32)cn1 (configuration not stated),-,23.01
COc1cc(N2CCCn3cnc(COCCO)c3C2)ncn1,21.51,-36.7
[H][C@]12CC[C@]([H])(CN(C(=O)c3ccccn3)C1)N(C(=O)c1ccsc1)C2,6.225,-14.29
O=C(O)C(F)(F)F.[H][C@@]12OCCN(S(=O)(=O)CCC)[C@@]1([H])CC[C@@H]2Oc1cccnc1,-,-12.54
O=C(NCCCn1ccnc1)N1CCCC1c1ccsc1 (configuration not stated),-,-6.194
COc1c(C2CCCN2C(=O)c2cnc[nH]2)c(C)nn1C (configuration not stated),-10.47,2.224
COC(=O)NC1(C(=O)NCc2ccc(-c3ccn[nH]3)cc2)CCCC1,-13.17,-5.675
CCC(CNC(=O)CNC(C)=O)Oc1cccc(F)c1 (configuration not stated),37.09,3.889
CS(=O)(=O)c1ccc(CNC(=O)N2CCC(CO)CC2)cc1,-,-11.98
CC(C)C(NC(=O)c1ccc(N2CCOCC2)nc1)c1cccs1 (configuration not stated),5.892,18.67
Cc1nc(C(=O)N(C)[C@@H]2CCC[C@@H](Oc3ccccc3)[C@@H]2O)co1,-24.07,4.319
N#Cc1cccc(NC2CC(=O)N(CCc3ccc(F)cc3)C2)n1 (configuration not stated),13.08,-17.02
Cc1cc2n(n1)CC(CNC1CCN(c3ccccn3)CC1)CN2 (configuration not stated),-,4.664
COc1ccc(Oc2ncccc2NC(=O)N2CCOCC2)cc1,34.92,14.31
CCN1CCC(CC(=O)N(C)CC(=O)c2ccc(O)cc2)CC1,17.39,2.531
O=C(O)c1ccc(N2CCC(Oc3cccc(F)c3)CC2)nc1,35.26,-9.85
CCc1nnc(Nc2cccc(C3CCN(C)CC3)n2)s1,-81.25,-32.63
[H][C@@]12C[C@H](C(=O)N3CCCCO3)CN(C(=O)c3cnccn3)[C@]1([H])CCO2,15.81,-24.38
[H][C@@]12COC[C@]1(c1nnc(C3CC3)o1)CN(C(=O)CS(C)(=O)=O)C2,-17.44,11.02
[H][C@]12CC[C@@]3(N=C(CC)N(CC(C)C)C3=O)[C@@]1([H])CN(S(=O)(=O)CC)C2,16.23,-12.9
Cc1n[nH]c(=O)c2c(NC(=O)CN3CCOCC3)oc(C)c12,10.85,8.998
CCOc1cc(CNC(C)c2sccc2C)ccn1 (configuration not stated),22.31,-1.373
CCCc1cncnc1N1CCC2(CCC(=O)N(C3CCCC3)C2)CC1,10.22,-30.92
O=C(O)C(F)(F)F.[H][C@@]12C[C@H](C(=O)N3CCCC3)CN(CC3CCOCC3)[C@]1([H])CCO2,1.072,-3.524
CN(C)c1nccnc1C1CCN(c2cnccn2)CC1,17.38,3.21
O=C1N(c2cccc(Cl)c2)Cc2nc(=O)n(Cc3cccc(F)c3)n21,-,14.89
Cc1cc(C)n(CC2CN(CCOc3ccccc3C#N)CCO2)n1 (configuration not stated),7.444,-22.26
CN1CCOC(CNCc2ccc(OCc3ccccn3)cc2)C1 (configuration not stated),28.53,-21.05
CC(C)(C)CN(CCC#N)C(=O)Nc1cccc(N2CCNC2=O)c1,-,3.317
O=C(O)C(F)(F)F.[H][C@@]12OCCN(S(C)(=O)=O)[C@@]1([H])CC[C@@H]2Oc1ncccc1F,-,0.01886
CS(=O)(=O)c1cnc(N2CCCC2)nc1C1CCN(C(=O)C2CC2)CC1,60.16,-1.08
COc1ccc(CCNC(=O)C2CCC(Cn3cnnn3)CC2)cc1 (configuration not stated),-,22.51
O=C(NC1CC1)C1CNCCN1C(=O)CCOc1ccccc1 (configuration not stated),-,8.121
CCN(CC)C1(Cc2cc(-c3cccc(O)c3)on2)COC1,0.5331,-18.62
CN1CCC2(CC1)CN(C(=O)c1onc3ccccc13)CCCN2C,-4.883,-34.46
O=C(NCc1ccncc1)C1=NOC2(CCCNC2)C1 (configuration not stated),-8.884,-34.84
COc1ccc(NC(=O)N2CCOCC(CN(C)C)C2)c(C)c1 (configuration not stated),-18.14,-11.76
Cc1ccc(CC(=O)N2CCn3cc(Cn4cncn4)nc3C2)cc1,20.43,10.78
Cc1cccc(CNC(=O)CC2CCN(Cc3ccccn3)CC2)n1,17.13,-18.17
NC(=O)CSCC(=O)NC1(c2cccc(Cl)c2)CC1,46.05,2.201
Cc1cccc2nc(CNC(=O)N3CCC(N4CC=CC4)C3)cn12 (configuration not stated),20.26,-16.41
CC(C)(C)CCN1CCCC(Cn2cc(CCO)nn2)C1 (configuration not stated),-,2.469
CSCc1ccc(N2CCN(c3ccc(Cl)cn3)CC2)nc1,-11.59,10.96
COc1nc2c(cc1C(=O)NC(C)Cc1cc(C)n[nH]1)CCC2 (configuration not stated),-38.14,-3.401
Cc1ccc2c(c1)SCC(=O)N2Cc1noc(C2CCCO2)n1 (configuration not stated),-,-19.61

The last 3 entries again:

With CSCc1ccc(N2CCN(c3ccc(Cl)cn3)CC2)nc1 the screen gave Mtb growth Cornell: -11.59%; Mtb heat-shock: 10.96%.
With COc1nc2c(cc1C(=O)NC(C)Cc1cc(C)n[nH]1)CCC2 (configuration not stated) the screen gave Mtb growth Cornell: -38.14%; Mtb heat-shock: -3.401%.
With Cc1ccc2c(c1)SCC(=O)N2Cc1noc(C2CCCO2)n1 (configuration not stated) the screen gave Mtb heat-shock: -19.61%.